Results published in patent US20090252703A1 (priority 2006, published 2009).

Test: general procedure: Fmoc solid-phase peptide synthesis; Rink amide resin; HBTU/DIEA in DMF; PyBOP/DIEA for lactam formation
Conditions: conjugation step, HPLC main peak %

Row | Substance | conjugation yield
1 | Ac-WVEHRLKGLLS[hArg]SGGVVR[hArg]K^(20kDa MeO-PEG)NFVPTDVGPFAF-amide | 48%
2 | Ac-WVTHRLAGLASRSGGVVRK^(20kDa MeO-PEG)NFVPTDVGPFAF-amide | 68%
3 | Ac-WVEH[hArg]LKGLLS[Cit]SGGVV[hArg]K^(20kDa MeO-PEG)NFVPTDVGPFAF-amide | 63%
4 | Ac-WVTH[hCit]LAGLLS[hArg]SGGVVR[hArg]K^(20kDa MeO-PEG)NFVPTDVGPFAF-amide | 63%
5 | Ac-WVTH[Cit]LAGLLS[Cit]SGGVV[hArg]K^(20kDa MeO-PEG)NFVPTDVGPFAF-amide | 63%
6 | Ac-[1-Nal]VEH[hArg]LKGLLS[Cit]SGGVVRK^(20kDa MeO-PEG)NFVPTDVGPFAF-amide | 66%
7 | Ac-WVTHRLAGLLPRSGGVVRK^(20kDa MeO-PEG)NFVPTDVGPFAF-amide | 55%
8 | Ac-WVTH[Cit]LAGLLSRPGGVVRK^(20kDa MeO-PEG)NFVPTDVGPFAFd | 64%
9 | Ac-WVEH[Cit]LKGLLS[Cit]SGGVVR[hArg]K^(20kDa MeO-PEG)NFVPTDVGPFAF-amide | 65%
10 | Ac-WVEHRLKGLLSQSGGVVR[hArg]K^(20kDa MeO-PEG)NFVPTDVGPFAF-amide | 61%
11 | Ac-WVTH[Cit]LAGLASRPGGVVRK^(20kDa MeO-PEG)NFVPTDVGPFAF-amide | 61%
12 | Ac-WVTH[Cit]LAGLLPRSGGVVRK^(20kDa MeO-PEG)NFVPTDVGPFAF-amide | 67%
13 | Ac-WVTH[Cit]LAGLLS[Cit]SGGVV[hArg]K^(20kDa MeO-PEG)NFVPTDVGP[1-Nal]AF-amide | 66%
14 | Ac-WVEHRLKGLLSRSGGVVRK^(20kDa MeO-PEG)NFVPTDVGPFAF-amide | 65%
15 | Ac-WVTH[Cit]LAGLLS[Cit]SGGVV[hArg]K^(20kDa MeO-PEG)NFVPTDVGP[Igl]AF-amide | 61%
16 | Ac-WVTHRLAGLLSRPGGVVRK^(20kDa MeO-PEG)NFVPTDVGPFAF-amide | 71%
17 | Ac-WVTHR[NMeLeu]AGLLSR[NMeSer]GGVVRK^(20kDa MeO-PEG)NFVPTDVGPFAF-amide | 66%
18 | Ac-WVTHRLAGLLSRSGGVVR[4Apa]^(20kDa MeO-PEG)NFVPTDVGPFAF-amide | 78%
19 | Ac-WVTH[Cit]LAGLLS[hArg]SGGVVR[hArg]K^(20kDa MeO-PEG)NFVPTDVGPFAF-amide | 61%
20 | Ac-[1-Nal]VTH[Cit]LAGLLS[Cit]SGGVVRK^(20kDa MeO-PEG)NFVPTDVGPFAF-amide | 14%
21 | Ac-WVTH[Cit]LAGLAS[Cit]SGGVVRK^(20kDa MeO-PEG)NFVPTDVGPFAF-amide | 69%

Row | Substance | conjugation yield
22 | Ac-WVTH[hArg]LAGLLS[hCit]SGGVV[hArg]K^(20kDa MeO-PEG)NFVPTDVGPFAF-amide | 61%
23 | Ac-WVTH[Cit]LAGLLS[Cit]SGGVV[hArg]K^(20kDa MeO-PEG)NFVPTDVG[Oic]FAF-amide | 58%
24 | Ac-WVTHQLAGLLSQSGGVV[hArg]K^(20kDa MeO-PEG)NFVPTDVGPFAF-amide | 72%
25 | Ac-WVTHRLAGLLSRSGGVVRK^(20kDa MeO-PEG)NFVPTDVGPFAF-amide | 67%
26 | Ac-WVTH[Cit]LAGLLS[Cit]SGGVV[Guf]K^(20kDa MeO-PEG)NFVPTDVGPFAF-amide | 58%
27 | Ac-WVEH[hArg]LKGLLS[Cit]SGGVVRK^(20kDa MeO-PEG)NFVPTDVGPFAF-amide | 59%
28 | Ac-WVTHRLAGLLS[Cit]SGG VVRK^(20kDa MeO-PEG)NFVPTDVGPFAF-amide | 69%
29 | Ac-WVTHRLAGLASRPGGVVRK^(20kDa MeO-PEG)NFVPTDVGPFAF-amide | 80%
30 | Ac-[Aib]WVEH[hArg]LKGLLS[Cit]SGGVVRK^(20kDa MeO-PEG)NFVPTDVGPFAF-amide | 70%
31 | Ac-WVTH[hCit]LAGLLS[hCit]SGGVV[hArg]K^(20kDa MeO-PEG)NFVPTDVGPFAF-amide | 63%
32 | Ac-WVTHRLEGLLKRSGGVVRK^(20kDa MeO-PEG)N FVPTDVGPFAF-amide | 60%
33 | Ac-WVTH[hArg]LAGLLS[Cit]SGGVV[hArg]K^(20kDa MeO-PEG)NFVPTDVGPFAF-amide | 60%
34 | Ac-WVTHRLAGLAS[Cit]SGGVVRK^(20kDa MeO-PEG)NFVPTDVGPFAF-amide | 71%
35 | Ac-WVTH[hArg]LAGLLS[hArg]SGGVV[hArg]K^(20kDa MeO-PEG)NFVPTDVGPFAF-amide | 56%
36 | Ac-WVTH[Cit]LAGLLS[Cit]SGGVVRK^(20kDa MeO-PEG)NFVPTDVGPFAF-amide | 68%
37 | Ac-WVTH[Cit]LAGLLSQSGGVVR[hArg]K^(20kDa MeO-PEG)NFVPTDVGPFAF-amide | 63%
38 | Ac-WVTH[Cit]LAGLLS[Cit]SGGVV[hArg]K^(20kDa MeO-PEG)NFVPTDVGP[Bip]AF-amide | 66%
39 | Ac-WVTH[Cit]LAGLLS[Cit]SGGVV[hArg]K^(20kDa MeO-PEG)N[pl-Phe]VPTDVGP[pI-Phe]AF-amide | 59%
40 | Ac-WVEHRLKGLLS[Cit]SGGVVR[hArg]K^(20kDa MeO-PEG)NFVPTDVGPFAF-amide | 66%
41 | Ac-WVTH[hArg]LAGLLS[Cit]SGGVV[hArg]K^(20kDa MeO-PEG)NFVPTDVGP[2-Nal]AF-amide | 70%
